PubChem BioAssay AID504444 (National Center for Advancing Translational Sciences (NCATS), 2011)
“And” between values parts separate entries of the source, which are not always exact repeats. Identical values can stand only once. The whole screen tested about 360,000 compounds, of which about 7,500 (2.1%) were called active. Inconclusive results, whose numbers are uncertain, are shown with a selection of clear calls. Calls follow the shape of the dose curve; as a rule, active = well fitted inhibition curve with a large enough effect; inconclusive = small, poorly fitted or top-dose-only effect, or effect the other way; inactive = flat fitted curve, though single readings scatter. A potency beside an inconclusive call is a rough fit, not a confirmed value.

Test: Nrf2 qHTS screen for inhibitors; also: nearly all actives have a fitted effect of over 60% in size
Settings: A549 ARE-Fluc reporter, luciferase luminescence, 18-24 h; activity change, negative = inhibition: at 46 µM (top of the series)
In short: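 A549 ARE_Fluc cells, 5000/well, 5% FBS OPTI-MEM; compounds in dose-response, 18-24 h at 37 °C/5% CO2; CellTiter-Fluor viability read (Ex 405/Em 525), then BugLite luciferase luminescence = Nrf2 activity.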
% is scaled to controls: 0 for no effect and ±100 for the full control effect; potency is read from the fitted curve at half-maximal effect.

Row | Compound | Potency | activity change, negative = inhibition
1 | CC1CCCN(CCCNC(=O)c2cc3c(Cl)nc4ccccc4c3s2)C1 (stereo not given) | inconclusive: 16.4 µM [activator, partial curve, poor fit] | 
2 | C/C(=N\NC(=O)c1cccc(S(=O)(=O)Nc2ccccc2Cl)c1)c1ccc(-n2ccnc2)cc1 | inconclusive: 23.1 µM [falling, single point] | 
3 | CSc1nc2cc(Oc3cccc(Cl)c3Cl)c(Cl)cc2[nH]1 | inconclusive: 18.4 µM [falling, single point] | 
4 | CCCCc1c(C)nc2cc(-c3ccco3)[nH]n2c1=O | inconclusive: 23.1 µM [activator, single point] | 
5 | CCOC(=O)c1ccc(NC(=S)NCCc2ccc(F)cc2)cc1 |  | inactive: 0.95%
6 | COc1cc(Cl)c(C)cc1Nc1nc2ccccc2n2cnnc12 |  | inactive: 22.4%
7 | Cc1cc(/C=N/n2cnnc2)c(C)n1-c1ccc(OCc2ccccc2F)cc1 | inconclusive: 18.4 µM [falling, single point] | 
8 | CCOC(=O)Cc1csc(NC(=O)CCCCCN2C(=O)c3ccccc3C2=O)n1 | inconclusive: 20.6 µM [falling, partial curve] | 
9 | CCCCS(=O)(=O)Nc1ccc(Cc2ccncc2)cc1 | inconclusive: 13 µM [falling, partial curve, poor fit] | 
10 | c1ccc(-c2nn3c(Cn4cnc5ccccc54)nnc3s2)cc1 |  | inactive: 0.0043%
11 | CC(CC(=O)N1CCN(c2ccccc2)CC1)S(=O)(=O)c1ccc2c(c1)NC(=O)CO2 (stereo not given) | inconclusive: 20.6 µM [falling, partial curve, poor fit] | 
12 | CC(C)CCNC(=O)c1ccc(-n2cnc3cccnc32)cc1 | inconclusive: 29.1 µM [falling, partial curve, poor fit] | 
13 | Cc1cc(C)c2nc(N3C(=O)C(O)=C(C(=O)c4ccco4)C3c3cccc(O)c3)sc2c1 (stereo not given) |  | inactive: 9.37%
14 | COc1ccc(/C=N\NC(=O)c2ccccc2Br)cc1COc1ccccc1 | inconclusive: 6.51 µM [falling, partial curve, poor fit] | 
15 | CC12CC(c3ccccc3O1)N(C(=O)c1ccco1)C(=S)N2c1ccc(F)cc1 (stereo not given) | active: 16.4 µM | 
16 | COc1ccc(OC)c2c1C(=O)c1ccccc1C2=O |  | inactive: -24.2%
17 | COc1ccc(OC)c(NC(=O)c2cc3c(cc2Cl)N2CCCCCC2=NS3(=O)=O)c1 | inconclusive: 18.4 µM [falling, partial curve, poor fit] | 
18 | COC(=O)c1cn(NC(=O)c2cc([N+](=O)[O-])ccc2F)c(=O)c2ccccc12 | active: 5.17 µM | 
19 | Clc1ccc(C=Cc2ccccn2)c(Cl)c1 | inconclusive: 16.4 µM [activator, partial curve] | 
20 | COc1ccccc1OCc1cc(C(=O)N2CCN(C)C(c3ccccc3)C2)no1 (stereo not given) | inconclusive: 6.51 µM [activator, partial curve] | 
21 | Cc1ccc2c(c1)C(c1ccccc1)N(C(=O)c1ccc(S(=O)(=O)N3CCOCC3)cc1)CC(=O)N2 (stereo not given) | inconclusive: 23.1 µM [falling, partial curve, poor fit] | 
22 | Cc1ccccc1NC(=O)/C(C#N)=C\c1ccsc1 | inconclusive: 29.1 µM [activator, single point] | 

Row | Compound | Potency | activity change, negative = inhibition
23 | Cc1ccc(S(=O)(=O)N2CCCCC2)cc1NC(=O)COc1ccccc1 | inconclusive: 32.6 µM [falling, single point] | 
24 | CN(Cc1ccco1)S(=O)(=O)c1nnc(NC(=O)c2ccccc2Cl)s1 | inactive and inconclusive: 32.6 µM [activator, single point] | 
25 | CCCc1cc(Nc2ccc(C)cc2)n2ncnc2n1 | inconclusive: 4.61 µM [falling, full curve, poor fit] | 
26 | CN(Cc1ccccc1)C(=O)c1ccc(NC(=O)Cc2ccc(NC(=O)C3CCCN(C(=O)C4CCCCC4)C3)cc2)cc1 (stereo not given) | inconclusive: 23.1 µM [falling, partial curve, poor fit] | 
27 | CCCn1cc(S(=O)(=O)c2cc(C)ccc2C)c(=O)c2cc(F)c(N3CCN(CC)CC3)cc21 |  | inactive: 9.27%
28 | O=C(NC1CC1)c1cccc(NC(=O)c2cc(S(=O)(=O)N3CCOCC3)ccc2Cl)c1 |  | inactive: -2.34%
29 | CN(C)S(=O)(=O)c1cccc(NC(=O)CSc2nnnn2-c2ccccc2)c1 | inconclusive: 23.1 µM [falling, partial curve, poor fit] | 
30 | N=c1c(S(=O)(=O)c2ccccc2)cc2c(=O)n3ccccc3nc2n1CC1CCCO1 (stereo not given) |  | inactive: 23.8%
31 | COC(=O)c1ccccc1C(=O)N1CCCC(CCC(=O)NCc2ccc(F)c(F)c2)C1 (stereo not given) |  | inactive: 23.9%
32 | CCCCc1c(C)c(C#N)c2nc3ccccc3n2c1NCCN(C)C | active: 6.51 µM | 
33 | COCCCn1c(=O)c2sccc2n2c(CCCC(=O)NC3CCC(C)CC3)nnc12 (stereo not given) |  | inactive: 14.5%
34 | CCc1cc(C(=O)N/N=C/c2ccc(O)cc2O)c2ccccc2n1 | inconclusive: 3.26 µM [falling, single point] | 
35 | O=c1oc(Nc2cccc(Cl)c2)nc2ccccc12 | inconclusive: 8.2 µM [activator, partial curve] | 
36 | CCOc1ccc(NC(=O)N2CCC(n3nnc4cc(C)ccc43)CC2)cc1 | inconclusive: 5.17 µM [falling, partial curve] | 
37 | O=[N+]([O-])c1cccc(-c2ccc(C(=S)N3CCOCC3)o2)c1 | inconclusive: 20.6 µM [activator, partial curve] | 
38 | COC(=O)N/N=C/c1ccc(-c2ccc(Cl)cc2Cl)o1 | inconclusive: 25.9 µM [activator, single point] | 
39 | COc1cc(OC)cc(C(=O)NNC(=O)c2ccccc2Br)c1 | inconclusive: 1.16 µM [activator, full curve, poor fit] | 
40 | CCCN1C/C(=C/c2ccc3c(c2)OCO3)C(=O)/C(=C/c2ccc3c(c2)OCO3)C1 |  | inactive: -27.3%
41 | CC(=O)N1c2ccc(S(=O)(=O)N3CCC(C(=O)N4CCCCC4)CC3)cc2CC1C (stereo not given) | inconclusive: 9.2 µM [falling, partial curve] | 
42 | Cc1cc(C(=O)NCc2cccs2)cs1 | inconclusive: 25.9 µM [activator, single point] | 
43 | O=C(CCc1ccccc1O)N/N=C/c1ccc(Sc2cccc3cccnc23)o1 | inconclusive: 20.6 µM [falling, single point] | 
44 | O=C(NCCc1ccccc1)c1ccc(NS(=O)(=O)c2ccc3[nH]c(=O)[nH]c3c2)cc1 | inconclusive: 16.4 µM [activator, single point] | 

Row | Compound | Potency | activity change, negative = inhibition
45 | COc1ccc(/C=N/NC(=O)c2ccc3ccccc3c2)cc1OS(=O)(=O)c1ccc(NC(C)=O)cc1 | active: 11.6 µM | 
46 | CC(C)c1ccc(NC2CCCN(C(=O)c3cnsn3)C2)cc1 (stereo not given) | inconclusive: 4.11 µM [falling, partial curve, poor fit] | 
47 | COc1cccc2c(=O)c3c([nH]c12)OC(C)(C)C3 | inconclusive: 16.4 µM [falling, partial curve, poor fit] | 
48 | COc1cc2c(cc1NC(=O)CCCN1C(=O)CCC1=O)oc1ccccc12 | inconclusive: 1.64 µM [activator, partial curve, poor fit] | 
49 | CC(C)C(=O)Nc1c2c(nn1-c1ccc(F)cc1)CS(=O)(=O)C2 |  | inactive: 12.1%
50 | Cc1c(C(=O)N2CCCCC2)oc2ccc(S(=O)(=O)N3CC(C)CC(C)C3)cc12 (stereo not given) | active: 9.2 µM | 
51 | CC1Cc2ccccc2N1C(=O)c1cnc2n(c1=O)CCS2 (stereo not given) | inconclusive: 4.61 µM [falling, partial curve, poor fit] | 
52 | Cc1cc(=O)oc(C)c1C(=O)Nc1cccc(F)c1 | inconclusive: 23.1 µM [falling, partial curve] | 
53 | CCc1c(C)sc2nc(C(C)C)nc(SCC(=O)N3CCc4ccccc4C3)c12 | inconclusive: 25.9 µM [falling, partial curve, poor fit] | 
54 | CC[C@@H](C)C(NC(=O)OC(C)(C)C)c1cn([C@@H](Cc2cc3ccccc3[nH]2)C(=O)N2CCN(C(=O)OC(C)(C)C)CC2)nn1 (stereo not given in full) | inconclusive: 29.1 µM [falling, partial curve, poor fit] | 
55 | CCC(C)n1c(=N)c(C(=O)NC2CCCCC2)cc2c(=O)n3ccccc3nc21 (stereo not given) |  | inactive: 3.22%
56 | CCOc1ccc(C(Nc2cccnc2)c2cc(Cl)c3cccnc3c2O)cc1 (stereo not given) | inconclusive: 32.6 µM [falling, single point] | 
57 | Cc1ccc(Cn2cccc(NC(=O)CCC3CCCC3)c2=O)cc1 | inconclusive: 29.1 µM [falling, single point] | 
58 | COc1ccc(C2=Nc3ccc(OC(F)(F)F)cc3NC(c3cccnc3)=N2)cc1 | inconclusive: 1.3 µM [falling, partial curve, poor fit] | 
59 | Cc1ccc(-c2nnc(N)o2)cc1 | inconclusive: 9.2 µM [activator, partial curve] | 
60 | CC[C@H](C)Cc1cn([C@@H](CCCCNC(=O)OC(C)(C)C)C(=O)NCCCCCCCCCCC(=O)N2CCN(C(=O)OC(C)(C)C)CC2)nn1 | active: 10.3 µM | 
61 | COc1cc(NC(=O)CSc2nc(-c3ccc(C(C)C)cc3)no2)cc(OC)c1 | inconclusive: 9.2 µM [falling, partial curve, poor fit] | 
62 | COc1ccc(NC(=O)CSc2cn(CCNC(=O)c3c(F)cccc3F)c3ccccc23)cc1 | inconclusive: 0.0046 µM [falling, full curve, poor fit] | 
63 | COc1cccc(CNn2cnnc2)c1OCc1ccccc1F | inconclusive: 6.51 µM [falling, single point] | 
64 | c1ccc(CCc2nc3ccccc3[nH]2)cc1 | inconclusive: 18.4 µM [activator, single point] | 
65 | CC(=O)NC(c1cccc([N+](=O)[O-])c1)c1ccc2cccnc2c1O (stereo not given) | inconclusive: 11.6 µM [falling, partial curve] | 
